{"source": "patent US8268809B2", "about": "“Kinase inhibitors for preventing or treating pathogen infection and method of use thereof” (priority 2006, dated 2012)", "system": "vaccinia virus", "assay_type": "cell-based", "note": "For at least one compound, name, drawing or mass did not settle the structure."}
{"smiles": "NCCCNC(=O)/C=C\\C(=O)Nc1ccc2ncnc(Nc3cccc(I)c3)c2c1", "note": "[JGAP-5]", "values": [{"measurement": "VACCINIA Plaque Assay", "result": "MASSIVE COMETS"}]}
